According to paper PMC10163288:
This is one part of the list.

B1: il10ra_site1_sap_28_mot_0eddeacbb14b769e73e254714f31e2f9_0001_af2_000000203_0001_37_51_H_._ems_3hM_77_0001_0000100001_0000002_1_0001_af2pred_dldesign_0_af2pred (protein)
chain: SSSSDVDAELEKMLAEIEKLYKEGKIEEAVKLLKEAAELAYENNNLEANARVLELSRKLASSSSS
B2: il10ra_site1_sap_17_mot_HHH_b1_05056_000000217_0001_1_20_H_._HHH_b2_06117_0001_0000300015_0000001_0_0001 (protein)
chain: SSSSSSWEEQDVRAVIKFAKQISNPEIARVALEYALELAREVGNEELEEEIEELLKELGSSSSSS
B3: il10ra_site1_normal_mot_HHH_b2_03220_af2_000000223_0001_23_40_H_._HHH_b2_02232_0001_0000300042_0000001_0 (protein)
chain: SSSSDKSEEVWRLIRLALELRAEGNPEEAEEVLKEAEELAKELGNFTFRFAIELLKKDIEESSSS
B4: il10ra_site1_sap_15_mot_HHH_b1_06786_000000000_0001_1_20_H_._HHH_b1_01295_0001_0000200021_0000001_0_0001 (protein)
chain: SSSSSDREERIEELLEEAERLREEGNPEEAARILMEALRLIFQLGNEELLRELWELIRRVSSSSS
B5: il10ra_site1_sap_25_mot_HHH_b1_04275_000000001_0001_22_39_H_._HHH_b2_07325_af2_0001_0000200012_0000001_0_0001 (protein)
chain: SSSSSSDAQRVFRLSERAAELASNGNPEEAEEVLEEAEKIAEEANDRLLQHQVRFMLELLSSSSS
B6: il10ra_site1_sap_16_mot_HHH_b1_02766_af2_000000078_0001_42_56_H_._HHH_b2_00444_af2_0001_0000200003_0000001_0_0001 (protein)
chain: SSSSTEANQEALELVLEAFRLLLRGDPEEAERVLKEAEELAREGNNPRLVEMIENLLRTQKSSSS
B7: il10ra_site1_sap_17_mot_b26a303360aa2756ef5b79665ce52f45_0001_000000179_0001_1_11_H_._HHH_b2_06946_0001_0000400005_0000001_0_0001_af2pred_0001 (protein)
chain: SSSSSEAEELVESALRAARIAREANDEEALKQALHAAKNTAKNHNNEELRELVEKVEEELHSSSS
B8: il10ra_site1_normal_mot_8756ee2cf497b5429c717dfc0c0bcfd6_0001_000000186_0001_1_13_H_._HHH_b2_04414_0001_0000600044_0000001_1 (protein)
chain: SSSSSSDELYRLLRRAAELNHEGNEEEARELVEQALELAEELNNDVAVAQAEYLLRQISSSSSSS
B9: il10ra_site1_sap_16_mot_HHH_b2_03553_000000260_0001_23_40_H_._HHH_b1_00984_0001_0000400023_0000002_0_0001 (protein)
chain: SQLMERSLKWVLERGDEETAKAAVEAMLRSRGVPPEEIEEILKEFEELLKKDPEEAVEFVVRLLE
B10: il10ra_site1_sap_20_mot_HHH_b1_06497_af2_000000119_0001_1_18_H_._4e2ac67898ad60a133cbede7db6c2933_0001_af2_0001_0000200008_0000002_0_0001 (protein)
chain: SSSSDDVFHRAWKLFREVAELLEEGDEERIEELLEEIEELYRATNNPALKAMLRAIRLRLNSSSS
B11: il10ra_site1_sap_8_mot_HHH_b1_06348_000000162_0001_1_15_H_._HHH_b1_06922_0001_0000100010_0000001_0_0001_af2pred_0001 (protein)
chain: SSSSSEAEKALRWFLRAVEELLKRGNPEAAKLALRDARFAAKFLNDEEIEERLEELEKLLDSSSS
B12: il10ra_site1_sap_17_mot_HHH_b1_05357_000000034_0001_23_39_H_._HHH_b2_07597_0001_0000100003_0000001_0_0001 (protein)
chain: SSSSSNEEQLRTRIEALLWFAKQADNKEALKLMLEFAEEAARELGDPEIERKVEEVEEELSSSSS
B13: il10ra_site1_sap_19_mot_HHH_b1_05056_000000217_0001_1_20_H_._HHH_b1_06884_0001_0000200009_0000002_0_0001 (protein)
chain: SSSSDLEERIEELEEEIKELEERGDKERVLRLLQEILQLIYHLQDKEKLRRLWEKLAKSRSSSSS
B14: il10ra_site1_sap_11_mot_HHH_b1_07743_af2_000000164_0001_42_55_H_._HHH_b2_01981_0001_0000100002_0000001_0_0001 (protein)
chain: SSSSDDEVLELSKEAFRLALRGDPEEAKEVLEEALRLAEEAGDERLAKIIRDLLKSLEAKSSSSS
B15: il10ra_site1_sap_19_mot_HHH_b1_08755_af2_000000053_0001_1_20_H_._HHH_b2_00911_af2_0001_0000400013_0000001_1_0001_af2pred_0001 (protein)
chain: SSSSSSIERAARLTLLLARLAVEGDEEEFEEVAKEVEEIAEELGNEALKELLEELHKRIHSSSSS
B16: il10ra_site1_normal_mot_HHH_b1_08755_af2_000000053_0001_1_20_H_._ems_3hC_645_0001_0001_0000400025_0000001_0 (protein)
chain: SSSEQEVFELVMEVLQVAFRAGDPEAMEEAYELSREAAEAAHNNDEEALKEVSERLEEFIEEFSS
B17: il10ra_site1_normal_mot_HHH_b1_05860_000000142_0001_1_19_H_._HHH_b1_06300_0001_0000100004_0000002_0 (protein)
chain: SSSSTEEVYKLLREAAELLDEGNPEEARKVLEEAREIAEELNNELFKIQLEFLLRTIEEYSSSSS
B18: il10ra_site1_sap_19_mot_HHH_b1_06816_000000239_0001_1_19_H_._HHH_b1_04199_0001_0000100004_0000002_0_0001 (protein)
chain: SSSSDEVEEYVRLALRFARWLYEVGDEEALRRMLKAARQVAERGNDPEAQELVREVEEELSSSSS

biological target: il10ra, Q13651; test: yeast display titration

Binder	apparent Kd
B1	inactive: no binding seen
B2	inactive: no binding seen
B3	inactive: no binding seen
B4	inactive: no binding seen
B5	inactive: no binding seen
B6	inactive: no binding seen
B7	inactive: no binding seen
B8	inactive: > 885 nM
B9	inactive: no binding seen
B10	inactive: > 455 nM
B11	inactive: no binding seen
B12	inactive: no binding seen
B13	inactive: no binding seen
B14	inactive: no binding seen
B15	inactive: no binding seen
B16	inactive: no binding seen
B17	inactive: no binding seen
B18	inactive: no binding seen

Copied from the listing for reference:
Binder	apparent Kd
B2	inactive: no binding seen
B3	inactive: no binding seen
